Paper doi:10.1101/2023.05.05.539603
Positions count from the first letter of the chain named. Results are given in words; binding and its absence hold for the method and conditions named. In cells and extracts the contact can be indirect. Some binding calls cover weakened binding; strength is not graded here. Where a sequence is shown, tags or fusion partners need not be part of it. Each block holds one molecule with its values, some of them ahead of it.

By UniProt entry, the sequences of proteins in these tests, tags left out. Where a name states a change or a piece, a line headed by the entry shows the natural chain unless it says otherwise.
UniProt Q9NQG6, whole entry: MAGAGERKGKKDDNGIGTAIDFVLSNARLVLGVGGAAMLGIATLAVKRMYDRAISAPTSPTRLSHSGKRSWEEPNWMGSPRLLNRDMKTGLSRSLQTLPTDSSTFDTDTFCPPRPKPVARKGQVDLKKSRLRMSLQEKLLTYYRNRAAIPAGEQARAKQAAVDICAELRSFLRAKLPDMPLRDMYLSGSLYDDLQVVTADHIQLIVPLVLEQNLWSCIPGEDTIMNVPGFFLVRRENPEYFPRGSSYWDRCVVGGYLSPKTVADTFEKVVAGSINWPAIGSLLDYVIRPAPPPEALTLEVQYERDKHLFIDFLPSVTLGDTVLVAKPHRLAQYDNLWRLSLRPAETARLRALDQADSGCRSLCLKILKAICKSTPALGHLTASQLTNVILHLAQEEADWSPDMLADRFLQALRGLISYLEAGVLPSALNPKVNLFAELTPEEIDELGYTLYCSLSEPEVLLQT

How the values were obtained:
Assay in all cases: co-IP
[1] = target: T1, CFP-MFF 2SA (S155A/S172A) (human) (UniProt Q9GZY8)
T1 sequence: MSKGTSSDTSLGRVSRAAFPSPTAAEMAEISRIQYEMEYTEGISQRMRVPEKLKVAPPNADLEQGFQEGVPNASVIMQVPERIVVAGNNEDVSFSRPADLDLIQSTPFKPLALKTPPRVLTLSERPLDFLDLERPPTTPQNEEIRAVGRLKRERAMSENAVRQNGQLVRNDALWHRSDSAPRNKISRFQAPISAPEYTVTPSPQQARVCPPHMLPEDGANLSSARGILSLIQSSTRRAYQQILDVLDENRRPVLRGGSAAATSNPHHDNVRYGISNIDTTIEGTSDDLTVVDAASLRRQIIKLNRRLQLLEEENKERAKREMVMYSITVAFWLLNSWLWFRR

[2] = target: T2, CFP-MFF 2SD (S155D/S172D) (human) (UniProt Q9GZY8)
T2 sequence: T1 sequence with A155D, A172D

CFP-MFF K151R (human) = target: T3, CFP-MFF K151R (human) (UniProt Q9GZY8)
T3 sequence: T1 sequence with K151R, A155S, A172S

[3] = target: T4, CFP-MFF WT (mitochondrial fission factor, human isoform 1) (human) (UniProt Q9GZY8)
T4 sequence: T1 sequence with A155S, A172S

GFP-MFF K151R (human) = target: T5, GFP-MFF K151R (human) (UniProt Q9GZY8)
T5 sequence: T1 sequence with K151R, A155S, A172S

[4] = target: T6, GFP-MFF WT (pAcGFP-tagged human MFF isoform 1) (human) (UniProt Q9GZY8)
T6 sequence: T1 sequence with A155S, A172S

Molecule: endogenous MiD51 (from UniProt Q9NQG6 1-463)
binding (GFP-MFF K151R (human)): binds
binding [4]: binds

B1: endogenous MiD49 (protein, UniProt Q96C03 1-454)
chain: MAEFSQKRGKRRSDEGLGSMVDFLLANARLVLGVGGAAVLGIATLAVKRFIDRATSPRDEDDTKADSWKELSLLKATPHLQPRPPPAALSQPVLPLAPSSSAPEGPAETDPEVTPQLSSPAPLCLTLQERLLAFERDRVTIPAAQVALAKQLAGDIALELQAYFRSKFPELPFGAFVPGGPLYDGLQAGAADHVRLLVPLVLEPGLWSLVPGVDTVARDPRCWAVRRTQLEFCPRGSSPWDRFLVGGYLSSRVLLELLRKALAASVNWPAIGSLLGCLIRPSMASEELLLEVQHERLELTVAVLVAVPGVDADDRLLLAWPLEGLAGNLWLQDLYPVEAARLRALDDHDAGTRRRLLLLLCAVCRGCSALGQLGRGHLTQVVLRLGEDNVDWTEEALGERFLQALELLIGSLEQASLPCHFNPSVNLFSSLREEEIDDIGYALYSGLQEPEGLL
binding [1]: binds
binding [2]: binds
binding (CFP-MFF K151R (human)): binds
binding [3]: binds

Further lines, results first:

binding [1]: binds
binding [2]: binds
binding (CFP-MFF K151R (human)): binds
binding [3]: binds
binding (GFP-MFF K151R (human)): binds
binding [4]: binds
Molecule: MiD51-HA (from UniProt Q9NQG6 1-463)

binding [1]: binds
binding [2]: binds
binding (CFP-MFF K151R (human)): binds
binding [3]: binds
B2: MiD49-HA (protein, UniProt Q96C03 1-454)
chain: B1 chain
